In paper PMC7335050, “Characterization of an alternative BAK-binding site for BH3 peptides” (Nature Communications, 2020):
Residues, ends and D or L forms follow the SMILES beside them.

Tested on: BAK 15–186
Assay: NMR chemical shift perturbation assay
Format: binding, human
Settings: 0.5 mM 15N-labeled BAK 15–186 titrated with unlabeled peptide, HSQC at 303 K

| Structure (SMILES) | Average CSPs value |
| --- | --- |
| CC[C@H](C)[C@H](NC(=O)[C@H](CS)NC(=O)[C@H](CCC(N)=O)NC(=O)[C@H](CC(C)C)NC(=O)[C@H](CCCCN)NC(=O)[C@H](CCCNC(=N)N)NC(=O)[C@H](C)NC(=O)[C@@H](NC(=O)[C@H](CCC(N)=O)NC(=O)[C@@H](NC(=O)[C@H](CCC(=O)O)NC(=O)[C@H](C)NC(=O)[C@@H](N)CCC(N)=O)C(C)C)[C@@H](C)CC)C(=O)N[C@@H](C)C(=O)N[C@@H](CC(=O)O)C(=O)N[C@@H](CCC(N)=O)C(=O)N[C@@H](Cc1ccccc1)C(=O)N[C@@H](Cc1c[nH]cn1)C(=O)N[C@@H](CCCNC(=N)N)C(=O)N[C@@H](CC(C)C)C(=O)N[C@@H](Cc1c[nH]cn1)C(=O)N[C@H](C(=O)N[C@@H](CCC(N)=O)C(=O)N[C@@H](CCC(N)=O)C(=O)N[C@@H](Cc1c[nH]cn1)C(=O)N[C@@H](CCC(N)=O)C(=O)O)C(C)C [BMF BH3] (H-QAEVQIARKLQCIADQFHRLHVQQHQ-OH; N-terminus and C-terminus assumed) | 0.02 |
| CC[C@H](C)[C@H](NC(=O)[C@H](CCC(=O)O)NC(=O)[C@H](CCCNC(=N)N)NC(=O)[C@H](C)NC(=O)[C@H](Cc1c[nH]c2ccccc12)NC(=O)[C@@H](N)CCC(N)=O)C(=O)NCC(=O)N[C@@H](C)C(=O)N[C@@H](CCC(N)=O)C(=O)N[C@@H](CC(C)C)C(=O)N[C@@H](CCCNC(=N)N)C(=O)N[C@@H](CCCNC(=N)N)C(=O)N[C@@H](CCSC)C(=O)N[C@@H](C)C(=O)N[C@@H](CC(=O)O)C(=O)N[C@@H](CC(=O)O)C(=O)N[C@@H](CC(C)C)C(=O)N[C@@H](CC(N)=O)C(=O)N[C@@H](C)C(=O)N[C@@H](CCC(N)=O)C(=O)N[C@@H](Cc1ccc(O)cc1)C(=O)N[C@@H](CCC(=O)O)C(=O)N[C@@H](CCCNC(=N)N)C(=O)N[C@@H](CCCNC(=N)N)C(=O)N[C@@H](CCCNC(=N)N)C(=O)N[C@@H](CCC(N)=O)C(=O)O [PUMA BH3, reference compound] | 0.01 |
